The values that follow are results of earlier work, collected in patent US20250283018A1, “TOILET RIM BLOCKS WITH SCENT CHANGE” (SYMRISE AG, priority 2021, published 2025).

Read-outs that look alike come from different tables or passages of the source.

Experiment in series [1]: not given
This is another data set of the same source.

Regarding `CCCCCCCC1CCC(=O)O1` (stereo not shown) [ALDEHYD C14 SOG], the lipophilicity (logP) reads like this: (Table 1, components of MARINA) 3.06; (Table 2, components of PEACH) 3.06. Besides, the “Bp. [° C.]” value was 286 °C in series [1] (Table 1, components of MARINA) and 286 °C in series [1] (Table 2, components of PEACH).
